# According to the supplement of paper PMC8728848:
# Some of the results follow.
# B1: PX9961W-pdi-543-27-543 (Parabacteroides distasonis) (protein)
# chain: EGNATTTSYFLNDQQAIDAIDGLYERFHQEGCYGRELFWEQGAACDIVWGRTRGYNSLATLAYTGDESPLRDVFSRMYSTMSRANWIIQELVKKEKGTTLTAVEKRSLGEAYFSRGWAHYLIAYRYGTDKQGVPFVRYEDFPDDYDNSIPPQQATVMDNYKLIIEDMDKAIAYLPIFESYDADNRGRAHQAAAVAFKAKTYAYWATWDATQWNNVIEMVNQLENNYNRDLAPTFAELFSSDLKDYWNAEYLWTIPSIGGALPGGTEFPGIILENKGWGKYNGWGQMKPSYDIYEEMAKDGKGNDRLVRSILEYNQEFPFFGETRKFWSTSDLEAGFMINKYMDAFKYSDPVGEGAVSANGDWPTVRVNFPIIRFAEMLLFRAEAYLMTGQADKATADINRIRLRSNLTPLTGTATMKDLYHERRCELAFEFTDHLFDLKRWNRSSNADIKTLADKELNAHPRIRRYEDRANPESAFTIIGYEDYTNKNAYQAHMMVFPYPSEEITKSNGQLKQNEGY
# What was measured:
# Assay in all cases: glycan array binding signal (z-score within array); higher = stronger binding
# Conditions in all cases: glycan notation: IUPAC condensed, linker removed
# [1] = target: Man(a1-2)Man(a1-3)[Man(a1-2)Man(a1-6)]Man(a1-6)[Man(a1-2)Man(a1-2)Man(a1-3)]Man
# How it was run: (§1)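 From the Consortium for Functional Glycomics database, 3228 arrays were curated, keeping only those whose protein sequence was available. Binding is given as a within-array Z-score averaged across arrays sharing a protein sequence and across linkers. Negative Z-scores can be read as non-binding.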
# [2] = target: Man(a1-2)Man(a1-3)[Man(a1-2)Man(a1-6)]Man(a1-6)[Man(a1-2)Man(a1-2)Man(a1-3)]Man(b1-4)GlcNAc(b1-4)GlcNAc
# How it was run: as §1
# [3] = target: Man(a1-2)Man(a1-3)[Man(a1-6)]Man(a1-6)[Man(a1-2)Man(a1-3)]Man(b1-4)GlcNAc(b1-4)GlcNAc
# How it was run: as §1
# [4] = target: Man(a1-2)Man(a1-6)[Man(a1-3)]Man(a1-6)[Man(a1-2)Man(a1-2)Man(a1-3)]Man
# How it was run: as §1
# [5] = target: Man(a1-2)Man(a1-6)[Man(a1-3)]Man(a1-6)[Man(a1-2)Man(a1-2)Man(a1-3)]Man(b1-4)GlcNAc(b1-4)GlcNAc
# How it was run: as §1
# Man(a1-3)[Man(a1-6)]Man = target: Man(a1-3)[Man(a1-6)]Man
# How it was run: as §1
# [6] = target: Man(a1-3)[Man(a1-6)]Man(a1-6)[Man(a1-2)Man(a1-3)]Man(b1-4)GlcNAc(b1-4)GlcNAc
# How it was run: as §1
# [7] = target: Man(a1-3)[Man(a1-6)]Man(a1-6)[Man(a1-3)]Man
# How it was run: as §1
# [8] = target: Man(a1-3)[Man(a1-6)]Man(a1-6)[Man(a1-3)]Man(b1-4)GlcNAc(b1-4)GlcNAc
# How it was run: as §1
# [9] = target: Man(a1-3)[Man(a1-6)]Man(b1-4)GlcNAc(b1-4)GlcNAc
# How it was run: as §1
# [10] = target: Man(a1-3)[Man(a1-6)]Man(b1-4)GlcNAc(b1-4)[Fuc(a1-6)]GlcNAc
# How it was run: as §1
# Man(a1-6)Man = target: Man(a1-6)Man
# How it was run: as §1
# Man(b1-4)GlcNAc = target: Man(b1-4)GlcNAc
# How it was run: as §1
# MurNAc(b1-4)GlcNAc = target: MurNAc(b1-4)GlcNAc
# How it was run: as §1
# Neu5Ac(a2-3)Gal = target: Neu5Ac(a2-3)Gal
# How it was run: as §1
# [11] = target: Neu5Ac(a2-3)Gal(b1-3)GalNAc
# How it was run: as §1
# [12] = target: Neu5Ac(a2-3)Gal(b1-3)GalNAc(b1-3)Gal(a1-4)Gal(b1-4)Glc
# How it was run: as §1
# [13] = target: Neu5Ac(a2-3)Gal(b1-3)GalNAc(b1-4)[Neu5Ac(a2-3)]Gal(b1-4)Glc
# How it was run: as §1
# [14] = target: Neu5Ac(a2-3)Gal(b1-3)GalNAc(b1-4)[Neu5Ac(a2-8)Neu5Ac(a2-3)]Gal(b1-4)Glc
# How it was run: as §1
# [15] = target: Neu5Ac(a2-3)Gal(b1-3)GalNAc6S
# How it was run: as §1
# [16] = target: Neu5Ac(a2-3)Gal(b1-3)GlcNAc
# How it was run: as §1
# [17] = target: Neu5Ac(a2-3)Gal(b1-3)GlcNAc(b1-2)Man
# How it was run: as §1
# [18] = target: Neu5Ac(a2-3)Gal(b1-3)GlcNAc(b1-2)Man(a1-3)[GlcNAc(b1-4)][Neu5Ac(a2-3)Gal(b1-3)GlcNAc(b1-2)Man(a1-6)]Man(b1-4)GlcNAc(b1-4)GlcNAc
# How it was run: as §1
# [19] = target: Neu5Ac(a2-3)Gal(b1-3)GlcNAc(b1-2)Man(a1-3)[Neu5Ac(a2-3)Gal(b1-3)GlcNAc(b1-2)Man(a1-6)]Man(b1-4)GlcNAc(b1-4)GlcNAc
# How it was run: as §1
# [20] = target: Neu5Ac(a2-3)Gal(b1-3)GlcNAc(b1-3)Gal(b1-3)GlcNAc
# How it was run: as §1
# [21] = target: Neu5Ac(a2-3)Gal(b1-3)GlcNAc(b1-3)Gal(b1-4)GlcNAc
# How it was run: as §1
# [22] = target: Neu5Ac(a2-3)Gal(b1-3)GlcNAc(b1-3)GalNAc
# How it was run: as §1
# [23] = target: Neu5Ac(a2-3)Gal(b1-3)GlcNAc(b1-4)Gal(b1-4)Glc
# How it was run: as §1
# [24] = target: Neu5Ac(a2-3)Gal(b1-3)GlcNAc(b1-6)GalNAc
# How it was run: as §1
# [25] = target: Neu5Ac(a2-3)Gal(b1-3)GlcNAc6S
# How it was run: as §1
# [26] = target: Neu5Ac(a2-3)Gal(b1-3)[Fuc(a1-4)]GlcNAc
# How it was run: as §1
# [27] = target: Neu5Ac(a2-3)Gal(b1-3)[Fuc(a1-4)]GlcNAc(b1-3)Gal(b1-3)[Fuc(a1-4)]GlcNAc
# How it was run: as §1
# [28] = target: Neu5Ac(a2-3)Gal(b1-3)[Fuc(a1-4)]GlcNAc(b1-3)Gal(b1-4)[Fuc(a1-3)]GlcNAc
# How it was run: as §1
# [29] = target: Neu5Ac(a2-3)Gal(b1-3)[GlcNAc(b1-6)]GalNAc
# How it was run: as §1
# [30] = target: Neu5Ac(a2-3)Gal(b1-3)[Neu5Ac(a2-6)]GalNAc
# How it was run: as §1
# [31] = target: Neu5Ac(a2-3)Gal(b1-3)[Neu5Ac(a2-6)]GlcNAc(b1-3)[Fuc(a1-3)[Gal(b1-4)]GlcNAc(b1-6)]Gal(b1-4)Glc
# How it was run: as §1
# [32] = target: Neu5Ac(a2-3)Gal(b1-3)]Neu5Ac(a2-3)Gal(b1-4)]GlcNAc
# How it was run: as §1
binder,measurement,setting,value
B1,glycan array binding signal (z-score),[1],0.3
same,glycan array binding signal (z-score),[2],-0.01
same,glycan array binding signal (z-score),[3],-1.56
same,glycan array binding signal (z-score),[4],-0.515
same,glycan array binding signal (z-score),[5],-1.01
same,glycan array binding signal (z-score),Man(a1-3)[Man(a1-6)]Man,-0.646
same,glycan array binding signal (z-score),[6],-0.521
same,glycan array binding signal (z-score),[7],1.43
same,glycan array binding signal (z-score),[8],0.256
same,glycan array binding signal (z-score),[9],-0.411
same,glycan array binding signal (z-score),[10],0.622
same,glycan array binding signal (z-score),Man(a1-6)Man,0.415
same,glycan array binding signal (z-score),Man(b1-4)GlcNAc,1.32
same,glycan array binding signal (z-score),MurNAc(b1-4)GlcNAc,-0.849
same,glycan array binding signal (z-score),Neu5Ac(a2-3)Gal,-0.416
same,glycan array binding signal (z-score),[11],-0.431
same,glycan array binding signal (z-score),[12],-0.228
same,glycan array binding signal (z-score),[13],-0.921
same,glycan array binding signal (z-score),[14],-0.589
same,glycan array binding signal (z-score),[15],0.824
same,glycan array binding signal (z-score),[16],-0.608
same,glycan array binding signal (z-score),[17],0.217
same,glycan array binding signal (z-score),[18],-0.555
same,glycan array binding signal (z-score),[19],1.17
same,glycan array binding signal (z-score),[20],-1.56
same,glycan array binding signal (z-score),[21],0.058
same,glycan array binding signal (z-score),[22],0.311
same,glycan array binding signal (z-score),[23],-0.533
same,glycan array binding signal (z-score),[24],0.654
same,glycan array binding signal (z-score),[25],0.968
same,glycan array binding signal (z-score),[26],-0.779
same,glycan array binding signal (z-score),[27],2.45
same,glycan array binding signal (z-score),[28],1.28
same,glycan array binding signal (z-score),[29],-0.924
same,glycan array binding signal (z-score),[30],-1.05
same,glycan array binding signal (z-score),[31],-0.292
same,glycan array binding signal (z-score),[32],-1.15

# Reformatted: entries from further up.
binder | measurement | setting | value
B1 | glycan array binding signal (z-score) | [19] | 1.17
same | glycan array binding signal (z-score) | [27] | 2.45
